Results: patent US20230075965A1, “USES OF BIOMARKERS FOR IMPROVING IMMUNOTHERAPY” (Dana-Farber Cancer Institute, Inc., priority 2020, published 2023)
For at least one compound, name, drawing or mass did not settle the structure.

Assays:
Assay type in all cases: cell-based, human
B7-H6 on SW620 cells = test: Flow cytometry of surface B7-H6 after panobinostat; conditions: 50 nM panobinostat, 12 hrs, anti-B7-H6 staining, vs DMSO
HLA-E on SW620 cells = test: Flow cytometry of surface HLA-E after panobinostat; conditions: 50 nM panobinostat, 12 hrs, anti-HLA-E staining, vs DMSO
SW620 cells = test: Flow cytometry NK cell cytotoxicity assay on tumor cells exposed to HDAC inhibitor or DMSO; conditions: 12.5 nM panobinostat, co-culture with NK from two donors, two E:T ratios, vs DMSO

Structure (SMILES): Cc1[nH]c2ccccc2c1CCNCc1ccc(/C=C/C(=O)NO)cc1 [panobinostat]
- B7-H6 surface expression (B7-H6 on SW620 cells): down-regulation of B7-H6
- HLA-E surface expression (HLA-E on SW620 cells): STAT1-independent upregulation of HLA-E
- sensitivity of tumor cells to NK cells (SW620 cells): decreased sensitivity to NK cells
